For some assays here: No signal at the amounts used counts as a negative. Tags and fusion partners may be left off the protein sequences shown.
Tests used:
[1] = system: T1, BsmBI methylase (M.BsmBI) (Bacillus stearothermophilus B61); test: activity in cells; conditions: plasmids carrying bsmBIM become fully resistant to BsmBI cleavage; BsmBI sites in vector confirmed intact; protein in cells; only the site is given
T1 sequence: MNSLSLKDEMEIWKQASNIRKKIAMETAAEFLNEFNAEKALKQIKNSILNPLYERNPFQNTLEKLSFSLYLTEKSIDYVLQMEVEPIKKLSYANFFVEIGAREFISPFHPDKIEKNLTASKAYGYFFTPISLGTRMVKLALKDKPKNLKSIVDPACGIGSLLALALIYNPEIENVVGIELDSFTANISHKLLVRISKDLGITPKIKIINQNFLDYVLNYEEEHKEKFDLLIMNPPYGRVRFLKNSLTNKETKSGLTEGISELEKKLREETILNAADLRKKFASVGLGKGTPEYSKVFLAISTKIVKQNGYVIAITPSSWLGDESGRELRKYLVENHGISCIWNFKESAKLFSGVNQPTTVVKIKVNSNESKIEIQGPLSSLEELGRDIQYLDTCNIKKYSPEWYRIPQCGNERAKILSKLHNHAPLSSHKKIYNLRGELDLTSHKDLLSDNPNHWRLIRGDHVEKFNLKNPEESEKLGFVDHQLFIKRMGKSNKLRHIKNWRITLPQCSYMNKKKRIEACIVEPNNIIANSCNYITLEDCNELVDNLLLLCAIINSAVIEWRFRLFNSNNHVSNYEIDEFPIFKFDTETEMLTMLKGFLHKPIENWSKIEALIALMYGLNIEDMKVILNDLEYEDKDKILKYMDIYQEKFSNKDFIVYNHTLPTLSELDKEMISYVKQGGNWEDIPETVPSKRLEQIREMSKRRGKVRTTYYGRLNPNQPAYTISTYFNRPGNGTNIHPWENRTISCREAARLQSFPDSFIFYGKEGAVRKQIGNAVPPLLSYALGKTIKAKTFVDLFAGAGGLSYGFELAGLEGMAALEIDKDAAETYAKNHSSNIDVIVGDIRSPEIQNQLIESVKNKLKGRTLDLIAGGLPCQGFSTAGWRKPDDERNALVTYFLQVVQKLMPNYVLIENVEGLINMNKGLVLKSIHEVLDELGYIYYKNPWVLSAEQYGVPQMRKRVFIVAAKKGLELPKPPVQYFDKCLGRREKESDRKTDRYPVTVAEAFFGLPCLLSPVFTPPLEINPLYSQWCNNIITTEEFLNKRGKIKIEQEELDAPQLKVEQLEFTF

[2] = system: T2, BsmBI restriction endonuclease (R.BsmBI) (Bacillus stearothermophilus B61); test: enzyme reaction in vitro; conditions: methylated by M.BsmBI (N6A and C5 methylase fusion), positions not given; native BsmBI, 30 units per 1 ug plasmid, 1 h 55 C; no cleavage of M.BsmBI-modified plasmid; binding itself not measured; purified recombinant protein; only the site is given
T2 sequence: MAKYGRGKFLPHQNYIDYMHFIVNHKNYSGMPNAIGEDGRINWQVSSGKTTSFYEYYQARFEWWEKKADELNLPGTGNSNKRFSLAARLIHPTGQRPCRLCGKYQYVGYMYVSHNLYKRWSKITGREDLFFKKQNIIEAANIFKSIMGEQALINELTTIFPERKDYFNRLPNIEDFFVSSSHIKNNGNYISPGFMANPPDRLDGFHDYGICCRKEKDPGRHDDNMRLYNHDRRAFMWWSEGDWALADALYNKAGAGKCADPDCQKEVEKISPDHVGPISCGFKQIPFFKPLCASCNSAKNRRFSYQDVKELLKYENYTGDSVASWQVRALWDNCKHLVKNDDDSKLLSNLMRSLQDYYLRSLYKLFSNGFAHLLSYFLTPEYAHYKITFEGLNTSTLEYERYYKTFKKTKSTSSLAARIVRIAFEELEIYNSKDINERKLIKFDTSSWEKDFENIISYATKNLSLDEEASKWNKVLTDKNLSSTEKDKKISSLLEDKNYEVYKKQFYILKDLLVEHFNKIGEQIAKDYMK

| Sequence | activity on this sequence [1] | activity on this sequence [2] |
| --- | --- | --- |
| CGTCTC (double strand) | active |  |
| CGTCTC (double strand) [BsmBI recognition site in plasmid modified by M.BsmBI] |  | not active |

From patent US20030100052
